Earlier results as cited in patent US20140057987A1, “Disinfectant Spray with Indicator” (GENESIS LABORATORIES, INC., priority 2010, published 2014).
At least one structure is not confirmed: it was looked up by name or label, or the drawing left a doubt.

Conditions: colour change of indicator

SMILES: O=S1(=O)OC(c2ccc(O)cc2)(c2ccc(O)cc2)c2ccccc21 [Phenol red]
- Transition pH range: 6.8-8.4 pH
